Data published in PubChem BioAssay AID493014 (National Center for Advancing Translational Sciences (NCATS), 2011).
The list shows a part of the results. These are further read-outs of the screen, such as a control signal, another cell line or another target. No call is given for them. Compounds called inactive in the main read-out are mostly missing here. The note in brackets gives the kind of curve behind each potency; many fits are weak.

Test: qHTS Assay to Find Inhibitors of Chronic Active B-Cell Receptor Signaling
Settings: ABC-DLBCL IkBa-CBG/CBR reporter, luminescence ratio (green luciferase fused to IkBa over red control in TMD8 lymphoma cells), 4 h
Method in brief: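 TMD8 human ABC-DLBCL cells with doxycycline-inducible IκBα–green luciferase fusion and unfused red luciferase, in 0.5% FBS medium; compounds up to 46 uM, 4 h at 37C. Green/red luminescence ratio, filter-overlap corrected, fitted to concentration-response curves.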

[1] = measured here: CBR red luminescence, cell number

In the case of `COC(=O)c1c(C)oc2ccc(N(C(=O)c3ccncc3)S(=O)(=O)c3ccc4ccccc4c3)cc12`, the AC50 [1] is reported as 2.91 µM [falling, partial curve, poor fit].
With `CCn1c2ccccc2c2cc(NC(=O)CNCC3CCCO3)ccc21` (stereo unspecified) the AC50 [1] was 6.31 µM [falling, partial curve, poor fit].
With `CCCCOC(=O)c1ccc(O)cc1` the AC50 [1] was 23.1 µM [rising, single point].
For `CNC(=O)COC(=O)c1cccc(S(=O)(=O)N2CCN(c3ccc(F)cc3)CC2)c1`, the AC50 [1] was 20 µM [rising, partial curve, poor fit].
With `COc1ccc(N(CC(=O)Nc2ccccc2OC)S(=O)(=O)c2ccccc2)cc1Cl` the AC50 [1] was 12.6 µM [falling, partial curve, poor fit].
For `CCOc1ccccc1C(=O)OCC(=O)NCCNC(=O)COC(=O)c1ccccc1OCC`, the AC50 [1] was 35.5 µM [falling, single point].
In the case of `Cn1nc(C(=O)NC2CCCC2)c2ccccc2c1=O`, the AC50 [1] is reported as 20.6 µM [rising, partial curve, poor fit].
For `CCOc1ccccc1N(CC(=O)NC1CCCC1)C(=O)CNC(=O)c1cccs1`, the AC50 [1] was 14.1 µM [falling, partial curve].
For `CC(C)OC(=O)CCc1nc2ccccc2[nH]c1=O`, the AC50 [1] was 6.51 µM [falling, single point].
With `CC1CCC(C(C)C)C(OC(=O)Cn2c(-c3ccc(Cl)cc3)[n+](C)c3ccccc32)C1` (stereo unspecified) the AC50 [1] was 35.5 µM [falling, single point].
For `Cc1ccc(C(=O)OCC(=O)Nc2cc(S(C)(=O)=O)ccc2Cl)cc1S(=O)(=O)N1CCCCC1`, the AC50 [1] was 35.5 µM [falling, single point].
In the case of `Cc1ccc(C(C)C)c(OCCN)c1`, the AC50 [1] is reported as 15.8 µM [falling, partial curve, poor fit].
In the case of `CC1=C(C(=O)OCc2ccccc2)C(c2cccs2)N2C(=O)CCSC2=N1` (stereo unspecified), the AC50 [1] is reported as 1.12 µM [falling, full curve, poor fit].
With `CCOC(=O)C1CCN(C(=O)CN(c2ccc(OC)cc2)S(=O)(=O)c2c(C)nn(C)c2C)CC1` the AC50 [1] was 0.082 µM [rising, full curve, poor fit].
For `O=C(NCCOc1ccccc1)c1ccccc1`, the AC50 [1] was 0.517 µM [rising, partial curve].
With `CCOC(=O)C(CC)/C(C)=N/NC(=O)c1ccccc1[N+](=O)[O-]` (stereo unspecified) the AC50 [1] was 3.55 µM [falling, full curve].
For `O=C(O)c1ccc(COc2ccccc2Cl)cc1`, the AC50 [1] was 20 µM [falling, single point].
For `CC(C)c1ccc(OCC(O)CN2CCN(c3ccccn3)CC2)cc1` (stereo unspecified), the AC50 [1] was 11.2 µM [rising, partial curve].
For `COC(=O)c1ccc(C(=O)OC)c(NC(=O)COC(=O)C2CC2C)c1` (stereo unspecified), the AC50 [1] was 16.4 µM [falling, single point].
With `CC(=O)c1ccc(NC(=O)CSc2nnc(NC(=O)Nc3ccccc3)s2)cc1` the AC50 [1] was 0.282 µM [rising, full curve, poor fit].
In the case of `CC(C)OC(=O)c1cccc(C(=O)Nc2cccc(NC(=O)c3cccc(C(=O)OC(C)C)n3)n2)n1`, the AC50 [1] is reported as 20 µM [rising, partial curve, poor fit].
In the case of `COC(=O)C1=C(C)NC(C)=C(C(=O)OC)C1C(=O)OCC(=O)N1c2ccccc2CC1C` (stereo unspecified), the AC50 [1] is reported as 8.2 µM [rising, partial curve, poor fit].
For `COc1cc(NC(=O)CCCNC(=O)c2ccc(Cl)cc2)cc(OC)c1`, the AC50 [1] was 11.2 µM [rising, single point].
For `CCc1ccccc1Nc1ncnc2c1cnn2-c1ccc(Cl)cc1`, the AC50 [1] was 4.47 µM [falling, full curve, poor fit].
For `C=CCc1ccc(OCCCOc2ccc(C)c(C)c2)c(OC)c1`, the AC50 [1] was 20.6 µM [rising, single point].
For `OC(CNCCc1ccc(C(F)(F)F)cc1)COc1ccc2ccccc2c1` (stereo unspecified), the AC50 [1] was 23.1 µM [falling, single point].
With `C/C(CCc1ccco1)=N\NC(=O)CNc1cccc2ccccc12` the AC50 [1] was 35.5 µM [falling, single point].
For `COC(=O)[C@H](CC(C)C)NC(=O)c1cc2c(cn1)[nH]c1ccccc12`, the AC50 [1] was 25.1 µM [falling, single point].
For `CNC(=O)C1CCN(Cc2cc3ccccc3n2Cc2cccc(C)c2)CC1`, the AC50 [1] was 6.31 µM [falling, partial curve, poor fit].
For `Cc1ccc(-n2c(-c3cccc(C)c3)n[nH]c2=S)cc1`, the AC50 [1] was 2.91 µM [rising, partial curve, poor fit].
With `O=C(Nc1ccc(O)cc1)/C(=C\C=C\c1ccccc1)NC(=O)c1ccccc1` the AC50 [1] was 3.16 µM [falling, partial curve, poor fit].
For `O=S(=O)(c1cnc(Cl)c(Br)c1)N1CCCCCC1`, the AC50 [1] was 2.59 µM [falling, full curve, poor fit].
In the case of `Cc1cc(C)n2nc(SCc3ccccc3F)nc2n1`, the AC50 [1] is reported as 15.8 µM [rising, single point].
For `CC(=O)Nc1cccn(Cc2c(Cl)cccc2Cl)c1=O`, the AC50 [1] was 0.708 µM [rising, full curve, poor fit].
With `COCCN1C(=O)C(CC(=O)Nc2ccccc2)SC1=Nc1ccc(OC)cc1` (stereo unspecified) the AC50 [1] was 23.1 µM [rising, single point].
With `O=C(CCNS(=O)(=O)c1cccc2nsnc12)N1CC(=O)N(CCc2ccccc2)C(=O)C1` the AC50 [1] was 35.5 µM [rising, single point].
For `COc1ccccc1OCC(=O)NCCc1nc2ccccc2[nH]1`, the AC50 [1] was 17.8 µM [falling, single point].
In the case of `Cc1ccccc1OCC(=O)Nc1cccc(C(=O)O)c1`, the AC50 [1] is reported as 2.24 µM [falling, full curve].
With `Cc1ccc2nsnc2c1NC(=S)NC(=O)c1ccco1` the AC50 [1] was 5.8 µM [falling, partial curve, poor fit].
In the case of `COc1cccc(C(=O)Nc2ccc(-n3nncc3C(C)(C)C)cc2)c1`, the AC50 [1] is reported as 10 µM [falling, partial curve].
For `CCc1noc(C)c1C(=O)Nc1nnc(CC(C)C)s1`, the AC50 [1] was 32.6 µM [falling, single point].
For `CCCN1CCN(CCCNC(=O)CN2C(=O)c3cccnc3Oc3ccc(C)cc32)CC1`, the AC50 [1] was 4.47 µM [rising, single point].
In the case of `Cc1cc2nccc(-c3ccccn3)n2n1`, the AC50 [1] is reported as 0.158 µM [falling, full curve, poor fit].
With `C=CCSc1nc(Oc2ccccc2)c2sccc2n1` the AC50 [1] was 10 µM [rising, partial curve].
With `S=C(NCc1ccco1)Nc1cccc(Cl)c1Cl` the AC50 [1] was 3.55 µM [rising, partial curve, poor fit].
With `Oc1ccccc1C1CC(c2cccs2)=NC(c2ccc(Cl)cc2)N1` (stereo unspecified) the AC50 [1] was 35.5 µM [falling, single point].
For `Cc1cc(SCC(=O)N/N=C/c2ccc(O)cc2O)nc2ccccc12`, the AC50 [1] was 14.1 µM [falling, single point].
For `Clc1ccc(-c2noc(COc3ccccc3)n2)cc1`, the AC50 [1] was 4.47 µM [rising, full curve, poor fit].
In the case of `CCc1cc2c(=O)[nH]c(N3CCOCC3)nc2s1`, the AC50 [1] is reported as 29.1 µM [falling, single point].
With `Cc1cccc(-c2sc(Nc3ccccc3)n[n+]2-c2ccccc2)c1` the AC50 [1] was 20.6 µM [falling, single point].
With `O=C(Nc1ccccc1C(=O)Nc1nnc(C(F)(F)F)s1)c1ccccc1Cl` the AC50 [1] was 12.6 µM [falling, single point] and the AC50 (measured here: IkBa-CBG green luminescence) was 5.01 µM [rising, partial curve, poor fit].
For `CC(C)CCNC(=O)c1csc2c1CCCCC2`, the AC50 [1] was 15.8 µM [rising, partial curve, poor fit].
In the case of `CCCCC1C(=O)N(c2ccccc2)N(c2ccccc2)C1=O`, the AC50 [1] is reported as 12.6 µM [falling, partial curve, poor fit].
For `CCCCn1c(-c2ccc([N+](=O)[O-])cc2)n[nH]c1=S`, the AC50 [1] was 11.2 µM [rising, partial curve].
For `COc1cc(CCC(=O)OCC(=O)Nc2cccc(S(N)(=O)=O)c2)cc(OC)c1OC`, the AC50 [1] was 1.64 µM [rising, full curve, poor fit].
In the case of `CC(=O)Oc1cc2c(C(=O)NCCCN3CCOCC3)c(C)oc2c2ccccc12`, the AC50 [1] is reported as 35.5 µM [falling, single point].
With `COc1cc(-c2nnc(CSc3nnc(Nc4ccc(Oc5ccccc5)cc4)s3)o2)cc(OC)c1OC` the AC50 [1] was 2.59 µM [rising, partial curve].
With `Cc1[nH]c(=O)[nH]c(=O)c1S(=O)(=O)N1CCCC(C(=O)N2CCN(c3ccccc3Cl)CC2)C1` (stereo unspecified) the AC50 [1] was 5.17 µM [rising, partial curve, poor fit].
In the case of `CC(C)(C)NC(=O)CSc1nc2ccccc2n1-c1ccccc1`, the AC50 [1] is reported as 13 µM [falling, single point].
In the case of `COc1ccc(OC)c(NC(=O)c2ccc(-c3cccs3)cc2)c1`, the AC50 [1] is reported as 2.82 µM [falling, full curve, poor fit].
In the case of `CCC(C)NC(=O)N1c2ccccc2Sc2ccccc21` (stereo unspecified), the AC50 [1] is reported as 0.501 µM [falling, full curve].
For `CCn1c(SCC(=O)c2cc(C)n(CC3CCCO3)c2C)nc2ccccc21` (stereo unspecified), the AC50 [1] was 5.62 µM [rising, single point].
In the case of `O=C(Nc1nc2c(s1)CCCC2)c1cccs1`, the AC50 [1] is reported as 13 µM [falling, partial curve].
In the case of `Cc1ccc(S(=O)(=O)N(C)c2ccc(OC(=O)c3cc(=O)[nH]c4ccccc34)cc2)cc1`, the AC50 [1] is reported as 4.11 µM [rising, full curve, poor fit].
For `C#CCOCCOCCOCCNc1nc(N2CCN(C(=O)CCCCCCCCCCNC(=O)Cn3cc(CCCCCN)nn3)CC2)nc(N2CCN(C(=O)CCCCCCCCCCNC(=O)[C@H](CO)n3cc(CCCCCN)nn3)CC2)n1`, the AC50 [1] was 18.4 µM [rising, partial curve, poor fit].
